Laboratory results published in patent US10822664B2, “Sequence-specific detection and phenotype determination” (priority 2015, dated 2020).
Some of these results come from one statement about several compounds together.

Test system: E. coli 1289011, 1289012, 1289014, and 1289018
Experiment: AST meropenem/peptide-PNA disk diffusion testing
Format: cell-based
Conditions: 10 μg meropenem disk including peptide-PNA
Protocol: Disk diffusion testing is conducted following CLSI-M02 (12) and interpreted following M100-S22 (13). Briefly, for testing each bacterium for susceptibility to meropenem, a Mueller-Hinton agar (MHA) plates are inoculated using a sterile cotton swab dipped into a suspension of a culture of bacteria at a 0.5 McFarland standard such that the entire surface of the MHA is covered. A 10 μg meropenem disk is applied to the surface of the inoculated plate and the plate is incubated at 35° C. in ambient air for 16 to 18 hours. The strain of bacteria is determined to be susceptible to meropenem if the diameter of the zone of inhibition around the meropenem disk is ≥23 mm and resistant to meropenem if the zone diameter is ≤19 mm.
The second row of FIG. 4 depicts the typical meropenem disk diffusion results for the E. coli strains where 1289011, 1289012, and 1289014 are CRE and 1289018 is CSE.
To determine the specific mechanism linked to the meropenem-resistant phenotype, disk diffusion testing is conducted with 10 μg meropenem disks including blaKPC-3- and blaNDM-1-peptide-PNA. If the peptide-PNA inhibits the specific carbapenemase linked to the meropenem resistance in the E. coli strain, then the zone diameter observed will be […] when compared to the zone diameter of the strain when exposed to a disk containing only meropenem.

Substance: blaKPC-3 peptide-PNA: PNA (SEQ ID NO 2) targeting the TIR of blaKPC-3, conjugated to the peptide KFFKFFKFFK (TCAACGATAT; all peptide nucleic acid (PNA); further chemistry not fully specified)
- zone diameter: ≥ 23 mm

Substance: blaNDM-1 peptide-PNA: PNA (SEQ ID NO 3) targeting the TIR of blaNDM-1, conjugated to the peptide KFFKFFKFFK (TCAAGTTTTCC; all peptide nucleic acid (PNA); further chemistry not fully specified)
- zone diameter: ≥ 23 mm
